The text below walks through data of PubChem BioAssay AID270 (DTP/NCI, 2004).

The test system of the test is BDF1 mice, s.c. Lewis lung carcinoma, T/C %. Kind of test: NCI In Vivo Anticancer Drug Screen. Data for tumor model Lewis Lung Carcinoma (subcutaneous) in B6D2F1 (BDF1) mice. In a few lines: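 Transplanted tumors grown in mice; compound vs vehicle dosing; endpoint survival or tumor size; ratio T/C.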
Where [1] appears, read: T/C endpoint: median survival time, dose: 400.0 mg/kg/injection, schedule: Q01DX004 (ip), vehicle: saline, higher T/C = longer survival.
Where [2] appears, read: T/C endpoint: median survival time, dose: 1600.0 mg/kg/injection, schedule: Q01DX004 (ip), vehicle: saline, higher T/C = longer survival.

The list does not hold the whole screen: it is rich in T/C values a quarter to a half above the control, in often repeated tests (any T/C) and in doses without a T/C. Other doses and runs of a compound stand elsewhere. T/C gives the treated animals as a percentage of the vehicle group. Schedule codes are those of the source, taken here to give the interval after Q, in days (D) or hours (H), and the number of doses after X. Some entries give survivors of the animals treated and no T/C: the source holds a T/C of zero for them, seemingly a mark for toxic or unscored doses. Some doses without a T/C left all or most animals alive at the check, yet need not have been tolerated: survival well below the control is almost never listed, so the zero probably covers shortened survival too. Counts of survivors are from the toxicity check (mostly the fifth day) where no day follows; animals may have died later. Some entries hold several experiments; their values stand side by side, smallest first. Some structures stand for samples that the source files as different forms (salt, stereo form or complex); doses refer to the form tested. Where survival is the endpoint, the PubChem record calls one and a half times the control and up active, and a quarter to a half above the control has no call in these data; cut-offs in other NCI protocols can differ. Some T/C values carry the count of animals alive at the toxicity check (mostly the fifth day); where none is given, no animal had died by that day.

In the case of `COc1cc2c[n+](C)c3c4cc5c(cc4ccc3c2cc1OC)OCO5` (tested in a mixture with another compound), the survivor count (T/C endpoint: median survival time, dose: 40.0 mg/kg/injection, schedule: Q01DX009 (ip), vehicle: saline, higher T/C = longer survival) is 10 of 10 and the survivor count (T/C endpoint: median survival time, dose: 80.0 mg/kg/injection, schedule: Q01DX009 (ip), vehicle: saline, higher T/C = longer survival) is reported as 10 of 10.
On to `CCN(CC)CCCC(C)Nc1c2ccc(Cl)cc2nc2ccc(OC)cc12` (stereo not given), for which the T/C (T/C endpoint: median survival time, dose: 8.0 mg/kg/injection, schedule: Q01DX009 (ip), vehicle: saline with Tween-80, higher T/C = longer survival) is 133 % of control and the T/C (T/C endpoint: median survival time, dose: 16.0 mg/kg/injection, schedule: Q01DX009 (ip), vehicle: saline with Tween-80, higher T/C = longer survival) was 136 % of control. The survivor count is, setting by setting: (T/C endpoint: median survival time, dose: 32.0 mg/kg/injection, schedule: Q01DX009 (ip), vehicle: saline, higher T/C = longer survival) 9 of 10; (T/C endpoint: median survival time, dose: 128.0 mg/kg/injection, schedule: Q01DX009 (ip), vehicle: saline with Tween-80, higher T/C = longer survival) 10 of 10; (T/C endpoint: median survival time, dose: 128.0 mg/kg/injection, schedule: Q01DX009 (ip), vehicle: saline, higher T/C = longer survival) 8 of 10; (T/C endpoint: median survival time, dose: 128.0 mg/kg/injection, schedule: Q01DX009 (ip), vehicle: suspension in saline, higher T/C = longer survival) 8 of 10; (T/C endpoint: median survival time, dose: 256.0 mg/kg/injection, schedule: Q01DX009 (ip), vehicle: saline with Tween-80, higher T/C = longer survival) 3 of 10; (T/C endpoint: median survival time, dose: 256.0 mg/kg/injection, schedule: Q01DX009 (ip), vehicle: saline, higher T/C = longer survival) 0 of 10. Also, the survivor count (T/C endpoint: median survival time, dose: 256.0 mg/kg/injection, schedule: Q01DX009 (ip), vehicle: suspension in saline, higher T/C = longer survival) is given as 0 of 10.
Consider `COc1cc([C@@H]2c3cc4c(cc3[C@H](O)[C@H]3COC(=O)[C@H]23)OCO4)cc(OC)c1OC`, for which, for the setting “T/C endpoint: mean tumor weight, dose: 4.0 mg/kg/injection, schedule: Q01DX011 (ip), vehicle: carboxymethylcellulose (CMC), higher T/C = larger tumour”, the survivor count was 0 of 6.
On to `CCNC1=C(N2CC2)C(=O)C(NCC)=C(N2CC2)C1=O`, for which the T/C (T/C endpoint: median survival time, dose: 1.5 mg/kg/injection, schedule: Q01DX009 (ip), vehicle: saline, higher T/C = longer survival) is 125 % of control. Besides, the survivor count (T/C endpoint: median survival time, dose: 3.0 mg/kg/injection, schedule: Q01DX009 (ip), vehicle: saline, higher T/C = longer survival) is recorded as 10 of 10.
Regarding `COc1cc2c(c(OC)c1OC)-c1ccc(OC)c(=O)cc1[C@@H](NC(=O)CF)CC2`, the survivor count is given as 10 of 10 (T/C endpoint: median survival time, dose: 0.37 mg/kg/injection, schedule: Q01DX009 (ip), vehicle: saline with Tween-80, higher T/C = longer survival) and 3 of 10 (T/C endpoint: median survival time, dose: 0.75 mg/kg/injection, schedule: Q01DX009 (ip), vehicle: saline with Tween-80, higher T/C = longer survival).
On to `O=NN(CCCl)C(=O)NC1CCC(=O)NC1=O` (stereo not given), for which the survivor count by setting is: (T/C endpoint: median survival time, dose: 1.3 mg/kg/injection, schedule: Q02DX009 (ip), vehicle: saline with Tween-80, higher T/C = longer survival) 10 of 10; (T/C endpoint: median survival time, dose: 4.0 mg/kg/injection, schedule: Q04DX003 (ip), vehicle: saline with Tween-80, higher T/C = longer survival) 10 of 10; (T/C endpoint: median survival time, dose: 5.0 mg/kg/injection, schedule: Q01DX001 (ip), vehicle: other, higher T/C = longer survival) 10 of 10; (T/C endpoint: median survival time, dose: 10.0 mg/kg/injection, schedule: Q01DX009 (ip), vehicle: other, higher T/C = longer survival) 10 of 10; (T/C endpoint: median survival time, dose: 20.0 mg/kg/injection, schedule: Q01DX001 (ip), vehicle: saline, higher T/C = longer survival) 10 of 10; (T/C endpoint: median survival time, dose: 40.0 mg/kg/injection, schedule: Q01DX001 (ip), vehicle: other, higher T/C = longer survival) 9 of 10 and 10 of 10. For the same compound, the survivor count is 6 of 10 and 10 of 10 (T/C endpoint: median survival time, dose: 80.0 mg/kg/injection, schedule: Q01DX001 (ip), vehicle: other, higher T/C = longer survival); 10 of 10 (T/C endpoint: median survival time, dose: 80.0 mg/kg/injection, schedule: Q01DX001 (ip), vehicle: saline, higher T/C = longer survival); 5 of 10 on day 16 (T/C endpoint: median tumor weight (est.), dose: 23.0 mg/kg/injection, schedule: Q01DX001 (ip), vehicle: gum acacia, higher T/C = larger tumour). The T/C is, setting by setting: (T/C endpoint: median survival time, dose: 2.5 mg/kg/injection, schedule: Q01DX009 (ip), vehicle: other, higher T/C = longer survival) 141 % of control; (T/C endpoint: median survival time, dose: 4.0 mg/kg/injection, schedule: Q01DX009 (ip), vehicle: Klucel (hydroxypropylcellulose) (HPC), higher T/C = longer survival) 131 % of control; (T/C endpoint: median survival time, dose: 5.0 mg/kg/injection, schedule: Q01DX009 (ip), vehicle: other, higher T/C = longer survival) 127 % of control; (T/C endpoint: median survival time, dose: 7.0 mg/kg/injection, schedule: Q01DX001 (ip), vehicle: gum acacia, higher T/C = longer survival) 132 % of control; (T/C endpoint: median survival time, dose: 11.0 mg/kg/injection, schedule: Q01DX001 (ip), vehicle: gum acacia, higher T/C = longer survival) 136 % of control; (T/C endpoint: median survival time, dose: 17.0 mg/kg/injection, schedule: Q01DX001 (ip), vehicle: gum acacia, higher T/C = longer survival) 126 % of control. Also, the T/C (T/C endpoint: median survival time, dose: 20.0 mg/kg/injection, schedule: Q01DX001 (ip), vehicle: other, higher T/C = longer survival) is 137 [9 of 10 alive] and 141 % of control.
Regarding `NC(=O)c1ncn(C2OC(CO)C(O)C2O)n1` (stereo not given), the survivor count is 10 of 10 (T/C endpoint: median survival time, dose: 20.0 mg/kg/injection, schedule: Q01DX009 (ip), vehicle: saline, higher T/C = longer survival); 10 of 10 (T/C endpoint: median survival time, dose: 160.0 mg/kg/injection, schedule: Q01DX009 (ip), vehicle: saline, higher T/C = longer survival); 9 of 10 and 10 of 10 (T/C endpoint: median survival time, dose: 320.0 mg/kg/injection, schedule: Q01DX009 (ip), vehicle: saline, higher T/C = longer survival).
`CCCCn1cnc2c(SC)nc(N)nc21`: the survivor count reads like this: (T/C endpoint: mean tumor weight, dose: 480.0 mg/kg/injection, schedule: Q01DX011 (ip), vehicle: other, higher T/C = larger tumour) 0 of 6; (T/C endpoint: mean tumor weight, dose: 720.0 mg/kg/injection, schedule: Q01DX011 (ip), vehicle: other, higher T/C = larger tumour) 1 of 6.
In the case of `NC(Cc1ccc(N(CCCl)CCCl)cc1)C(=O)O` (stereo not given), the survivor count (T/C endpoint: mean tumor weight, dose: 20.0 mg/kg/injection, schedule: Q01DX011 (ip), vehicle: saline, higher T/C = larger tumour) is 0 of 6.
Take `CNC(=O)N(C)c1cc(N(C)C)nc(OC)n1`: for the setting “T/C endpoint: median survival time, dose: 20.0 mg/kg/injection, schedule: Q01DX009 (ip), vehicle: Klucel (hydroxypropylcellulose) (HPC), higher T/C = longer survival”, the T/C was 146 % of control.
Take `COc1cccc2c1C(=O)c1c(O)c3c(c(O)c1C2=O)C[C@@](O)(C(=O)CO)C[C@@H]3OC1CC(N)C(O)C(C)O1` (stereo not given in full): the survivor count (T/C endpoint: median survival time, dose: 0.5 mg/kg/injection, schedule: Q01DX009 (ip), vehicle: saline, higher T/C = longer survival) is on record as 10 of 10; the survivor count (T/C endpoint: median survival time, dose: 2.0 mg/kg/injection, schedule: Q08HX024 (ip), vehicle: saline, higher T/C = longer survival) was 10 of 10; the survivor count (T/C endpoint: median survival time, dose: 5.6 mg/kg/injection, schedule: Q04DX003 (ip), vehicle: saline, higher T/C = longer survival) is reported as 8 of 8; the survivor count (T/C endpoint: median survival time, dose: 8.0 mg/kg/injection, schedule: Q04DX003 (ip), vehicle: saline, higher T/C = longer survival) is recorded as 8 of 8; the survivor count (T/C endpoint: median survival time, dose: 8.0 mg/kg/injection, schedule: Q04DX003 (iv), vehicle: saline, higher T/C = longer survival) is recorded as 8 of 8; the survivor count (T/C endpoint: median survival time, dose: 9.8 mg/kg/injection, schedule: Q01DX001 (ip), vehicle: saline, higher T/C = longer survival) was 7 of 8 and 8 of 8. Moreover, the survivor count (T/C endpoint: median survival time, dose: 9.8 mg/kg/injection, schedule: Q01DX001 (iv), vehicle: saline, higher T/C = longer survival) was 6 of 8; the survivor count (T/C endpoint: median survival time, dose: 14.0 mg/kg/injection, schedule: Q01DX001 (ip), vehicle: saline, higher T/C = longer survival) is 8 of 8; the survivor count (T/C endpoint: median survival time, dose: 14.0 mg/kg/injection, schedule: Q01DX001 (iv), vehicle: saline, higher T/C = longer survival) is 6 of 8 and 8 of 8. Also, the T/C (T/C endpoint: median survival time, dose: 5.6 mg/kg/injection, schedule: Q04DX003 (iv), vehicle: saline, higher T/C = longer survival) was 141 % of control and the T/C (T/C endpoint: median survival time, dose: 6.86 mg/kg/injection, schedule: Q01DX001 (ip), vehicle: saline, higher T/C = longer survival) is 130 % of control.
For `CSCS(=O)C[C@H](CO)NC(=O)/C=C/c1c(C)[nH]c(=O)[nH]c1=O` (stereo not given in full), the survivor count is, setting by setting: (T/C endpoint: median survival time, dose: 0.6 mg/kg/injection, schedule: Q01DX009 (ip), vehicle: water, higher T/C = longer survival) 10 of 10; (T/C endpoint: median survival time, dose: 1.2 mg/kg/injection, schedule: Q01DX009 (ip), vehicle: water, higher T/C = longer survival) 1 of 10.
`C[C@H]1CC[C@@]2(NC1)O[C@H]1C[C@H]3[C@@H]4CC[C@H]5C[C@@H](O)CC[C@]5(C)[C@H]4CC[C@]3(C)[C@H]1[C@@H]2C`: the T/C (T/C endpoint: mean tumor weight, dose: 200.0 mg/kg/injection, schedule: Q01DX011 (sc), vehicle: steroid suspending solution, evaluated on day 12, higher T/C = larger tumour) was 133 % of control.
`O=C(CP(=O)(O)O)NC(CC(=O)OCc1ccccc1)C(=O)OCc1ccccc1` (stereo not given): the T/C reads like this: (T/C endpoint: median survival time, dose: 50.0 mg/kg/injection, schedule: Q01DX004 (ip), vehicle: saline, higher T/C = longer survival) 128 % of control; (T/C endpoint: median survival time, dose: 200.0 mg/kg/injection, schedule: Q01DX004 (ip), vehicle: saline, higher T/C = longer survival) 132 and 139 % of control [7 of 8 alive]; under setting [1], 139 % of control; under setting [2], 135 % of control. The survivor count is 5 of 8 under setting [1]; 3 of 8 and 5 of 8 (T/C endpoint: median survival time, dose: 800.0 mg/kg/injection, schedule: Q01DX004 (ip), vehicle: saline, higher T/C = longer survival); 1 of 8 and 7 of 8 under setting [2].
